Measurements: PMC11602975
Results are given in words; binding and its absence hold for the method and conditions named. Binding seen in cells or lysates may run through a third protein. Some results given as binding are weak or reduced against the parent protein; the word gives no strength. Sequences can lack the tags named with a protein.

Sequences of proteins named here, by UniProt entry; tags and fusion partners are left off. A change or cut given only in a name is not applied to a line headed by its entry. A line that says so, or that is headed by a name, gives the form on record, which may keep a tag or linker.
UniProt P29590: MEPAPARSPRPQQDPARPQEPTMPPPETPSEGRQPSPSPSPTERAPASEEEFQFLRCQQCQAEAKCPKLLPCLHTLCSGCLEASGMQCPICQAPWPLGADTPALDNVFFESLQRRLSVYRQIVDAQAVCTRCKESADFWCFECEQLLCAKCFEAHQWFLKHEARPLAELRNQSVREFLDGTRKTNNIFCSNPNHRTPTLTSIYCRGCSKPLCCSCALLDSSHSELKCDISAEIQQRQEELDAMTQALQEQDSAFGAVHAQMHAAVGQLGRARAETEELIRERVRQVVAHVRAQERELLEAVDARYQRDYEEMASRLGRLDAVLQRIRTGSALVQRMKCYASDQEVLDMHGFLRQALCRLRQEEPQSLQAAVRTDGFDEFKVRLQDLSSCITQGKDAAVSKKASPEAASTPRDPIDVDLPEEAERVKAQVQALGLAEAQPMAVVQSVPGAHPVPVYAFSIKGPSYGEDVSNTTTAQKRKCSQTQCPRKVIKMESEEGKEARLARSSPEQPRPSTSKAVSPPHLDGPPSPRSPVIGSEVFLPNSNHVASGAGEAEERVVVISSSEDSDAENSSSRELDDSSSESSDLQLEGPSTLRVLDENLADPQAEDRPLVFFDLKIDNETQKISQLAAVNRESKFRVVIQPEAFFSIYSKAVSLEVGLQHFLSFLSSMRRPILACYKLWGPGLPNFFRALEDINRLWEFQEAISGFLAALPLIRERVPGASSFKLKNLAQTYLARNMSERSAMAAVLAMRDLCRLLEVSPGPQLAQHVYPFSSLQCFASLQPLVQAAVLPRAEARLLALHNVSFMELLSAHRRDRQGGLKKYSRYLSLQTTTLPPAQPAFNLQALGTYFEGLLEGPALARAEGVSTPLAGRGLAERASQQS
Flag-PML-I-Δ8a (P29590, form named): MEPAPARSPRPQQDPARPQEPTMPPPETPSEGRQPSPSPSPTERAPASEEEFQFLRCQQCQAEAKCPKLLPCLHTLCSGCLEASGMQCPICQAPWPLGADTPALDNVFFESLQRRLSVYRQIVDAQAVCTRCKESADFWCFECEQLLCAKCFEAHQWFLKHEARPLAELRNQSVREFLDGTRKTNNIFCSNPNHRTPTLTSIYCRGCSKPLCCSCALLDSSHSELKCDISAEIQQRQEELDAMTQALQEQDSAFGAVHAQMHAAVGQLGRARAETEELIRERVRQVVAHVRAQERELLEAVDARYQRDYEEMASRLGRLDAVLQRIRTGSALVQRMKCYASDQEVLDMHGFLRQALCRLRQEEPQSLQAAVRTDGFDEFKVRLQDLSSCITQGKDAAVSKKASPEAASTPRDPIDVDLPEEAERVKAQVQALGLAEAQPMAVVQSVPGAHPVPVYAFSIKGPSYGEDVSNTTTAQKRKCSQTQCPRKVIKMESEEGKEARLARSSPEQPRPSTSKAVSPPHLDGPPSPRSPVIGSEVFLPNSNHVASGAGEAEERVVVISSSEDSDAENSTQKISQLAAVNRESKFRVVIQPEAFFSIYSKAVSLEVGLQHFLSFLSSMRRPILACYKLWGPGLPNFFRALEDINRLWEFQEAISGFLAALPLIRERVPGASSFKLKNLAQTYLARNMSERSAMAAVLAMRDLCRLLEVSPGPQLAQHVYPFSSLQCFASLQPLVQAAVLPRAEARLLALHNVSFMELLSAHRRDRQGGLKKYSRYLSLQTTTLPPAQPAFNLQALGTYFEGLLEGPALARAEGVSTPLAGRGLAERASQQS

Assays:
Flag-PML-I-Δ8a (human) = Flag-PML-I-Δ8a (human) (UniProt P29590); assay: co-IP; HEK293T cells co-transfected with HA-TREX1 and Flag-PML-I or Flag-PML-I-Δ8a; lysates immunoprecipitated with anti-Flag M2 beads for 4 h; western blotting with anti-HA and anti-Flag
Flag-PML-I (human) = Flag-PML-I (human) (UniProt P29590); assay: as above

binding (Flag-PML-I-Δ8a (human)): binds
binding (Flag-PML-I (human)): no binding
B1: HA-TREX1 (protein, UniProt Q9NSU2 1-314)
chain: MGSQALPPGPMQTLIFFDMEATGLPFSQPKVTELCLLAVHRCALESPPTSQGPPPTVPPPPRVVDKLSLCVAPGKACSPAASEITGLSTAVLAAHGRQCFDDNLANLLLAFLRRQPQPWCLVAHNGDRYDFPLLQAELAMLGLTSALDGAFCVDSITALKALERASSPSEHGPRKSYSLGSIYTRLYGQSPPDSHTAEGDVLALLSICQWRPQALLRWVDAHARPFGTIRPMYGVTASARTKPRPSAVTTTAHLATTRNTSPSLGESRGTKDLPPVKDPGALSREGLLAPLGLLAILTLAVATLYGLSLATPGE
